Library screening results

Measurements from “University of Dundee, Small-Polar-MMV Screening Library” (2021), ChEMBL document CHEMBL3988442.

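Viability assay of Plasmodium falciparum sporozoites; the read-out is not stated. The concentration is filed as 10 mM, unlikely as a test dose, so the dose is not known. The record gives no direction; compounds that gave an IC50 in retests scored well above the rest, so higher reads as lower viability. Strong results were mostly tested again. Of about 34,000 compounds tested this way, about 280 (0.84%) reached 50% or more in at least one test.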

Each number is a percent effect as filed. The controls that fix the scale are not given in the record; negative values are as filed. The compounds are a random part of those screened.

CC(C)n1ccnc1C1CCN(C(=O)c2ccccc2)CC1 gave 3.846%. O=C(c1ccncn1)N1CCC[C@]2(C[C@H](OCC3CC3)CO2)C1 read -3.694%. With Cc1ccc(N2CCCC(NCc3ccc(C)o3)C2)nn1 (stereo not given) the screen gave -17.66%. For c1ccc(CN2CCC(c3nccnc3-n3ccnc3)CC2)cc1 the result was 15.19%. With COCCOc1ccc(C(=O)N2CCCC(n3cncn3)C2)cn1 (stereo not given) the screen gave -1.726%. With COc1ccc(N2CCN(CC(O)c3cc(C)ccc3C)CC2)cc1 (stereo not given) the screen gave -6.267%. For Cc1cc(C)nc(N2CCC(c3cc(CCO)[nH]n3)C2)n1 (stereo not given) the result was 14.18%. O=C(c1cc(-n2cccn2)ccn1)N1CCOc2ccncc21 gave -11.72%.

Cc1cccc(CN2C(=O)CCC23CCN(Cc2ccoc2)CC3)n1 gave 15.7%. CCn1ncc2c1CN(C(=O)c1cscn1)CC2COC.O=C(O)C(F)(F)F (stereo not given) gave -4.4%. Result for O=C(Nc1nnn[nH]1)c1ccc(I)c(F)c1 was 0.4353%. With CC(=O)N1CCOCC2(CCCNC2)C1 (stereo not given) the screen gave 3.08%. For CCCC(=O)NCC(=O)Nc1cc(F)ccc1SCC(F)F the result was -8.546%. CCc1ccc(CN2CCC3(CC2)C(=O)N(C)CCN3CC2CC2)cc1.O=C(O)C(F)(F)F gave 2.908%. With COc1ccccc1CC1CCCN(CCN2CCOC2=O)C1 (stereo not given) the screen gave -17.6%. CN(c1ccncn1)C1CC2(CCN(C(=O)c3cccs3)C2)C1 (stereo not given) gave -16.94%.

Result for Cc1ncsc1C(=O)NCc1ccnc(OCC(F)(F)F)c1 was 6.389%. Cn1ccnc1CN1CCC2(CC1)COCCN(S(C)(=O)=O)C2.O=C(O)C(F)(F)F read 0.5993%. Cc1nccc(-c2cccc(NCC(=O)NCC(=O)N3CCCC3)c2)n1 gave -8.887%. CNS(=O)(=O)c1cccc(C(C)NCc2cccc(O)c2)c1 (stereo not given) read -4.94%. For CN(C)c1cc(C(=O)NCCc2nnc(-c3ccco3)[nH]2)ccn1 the result was -3.044%. Result for O=C(Cc1ccc2c(c1)CCCC2)N[C@@H]1CC[C@@H](n2ccnc2)[C@@H]1O was 9.993%. For Cc1cc2ccncc2n1CC1(O)CCN(C(=O)c2cccnc2)CC1 the result was -8.076%. With Oc1nc(N2CCOCC2)nc2c1CCN(Cc1ccccc1)CC2 the screen gave 4.997%.

For Cc1ccc(CN2CC[C@@H](O)[C@@H]2Cc2cnn(C)c2)o1.O=C(O)C(F)(F)F the result was 2.32%. For COc1ccc(CNC(C)c2cccc(Cl)c2)c(OC)c1OC (stereo not given) the result was -2.146%. Result for CC1N(c2cnn(C)c2)C(=O)COC12CCN(CC1CC1)CC2.O=C(O)C(F)(F)F (stereo not given) was -0.9418%. Result for Cc1nc(CN2CCCC(NCc3ccsc3)C2)no1 (stereo not given) was 6.541%. NC(=O)CC1CCN(C(=O)NCC2(c3ccccc3F)CC2)CC1 gave -6.4%. CN(CC(=O)N1CCC(Cc2cccc(C(N)=O)c2)C1)C1CCCC1 (stereo not given) gave -7.281%. For COc1ccc(OC)c(-n2cnnc2CCN)c1 the result was 7.929%. For O=S(=O)(C1CC1)N1CCC2(COCc3cnc(N4CCOCC4)nc32)C1 (stereo not given) the result was 7.237%.

For CCc1cnc(CN2CCC(N(C)Cc3noc(C4CC4)n3)C2)o1 (stereo not given) the result was 8.533%. With Cc1nn(-c2ccccc2)nc1C(=O)N1CCCC(n2cccn2)C1 (stereo not given) the screen gave 6.77%. CCC(C(=O)N1CCCN(CCN(C)C)CC1)N1CCCC1=O (stereo not given) read -4.571%. With Cc1nc(C)n(CC2CCCN(CC3CCCCC3)C2)n1 (stereo not given) the screen gave 13.37%. CCc1cnc(CN(C)C2CCN(Cc3nnc(C4CC4)n3C)C2)o1 (stereo not given) read 15.03%. With [H][C@@]12CCCCCN(C(C)=O)[C@@]1([H])[C@H](c1cccc(F)c1)CN2C(=O)COC the screen gave 11.96%. Result for [H][C@@]12C[C@@H](O)CN1C[C@H](Cc1ccccc1)N(Cc1cnn(C=C)c1C)C2 was 8.661%. Cl.c1cnc2c(c1)cc([C@H]1CCCO1)n2CCN1CCCCC1 gave -8.175%.

3 of the entries, repeated:

SMILES,effect
Cc1nn(-c2ccccc2)nc1C(=O)N1CCCC(n2cccn2)C1 (stereo not given),6.77
O=C(Nc1nnn[nH]1)c1ccc(I)c(F)c1,0.4353
Cc1nccc(-c2cccc(NCC(=O)NCC(=O)N3CCCC3)c2)n1,-8.887